Binding data for one molecule are collected here from PMC4158885 (The EMBO Journal, 2014).

Where a chain is given by its changes, count along the chain named. Results are given in words; binding and its absence hold for the method and conditions named. Some binding calls cover weakened binding; strength is not graded here. Where a sequence is shown, tags or fusion partners need not be part of it.

Assay [1] has as its target T1, Saccharomyces cerevisiae Pan2 (scPan2), full length, of the recombinant scPan2–Pan3 complex (Saccharomyces cerevisiae) (UniProt P53010).
T1 sequence: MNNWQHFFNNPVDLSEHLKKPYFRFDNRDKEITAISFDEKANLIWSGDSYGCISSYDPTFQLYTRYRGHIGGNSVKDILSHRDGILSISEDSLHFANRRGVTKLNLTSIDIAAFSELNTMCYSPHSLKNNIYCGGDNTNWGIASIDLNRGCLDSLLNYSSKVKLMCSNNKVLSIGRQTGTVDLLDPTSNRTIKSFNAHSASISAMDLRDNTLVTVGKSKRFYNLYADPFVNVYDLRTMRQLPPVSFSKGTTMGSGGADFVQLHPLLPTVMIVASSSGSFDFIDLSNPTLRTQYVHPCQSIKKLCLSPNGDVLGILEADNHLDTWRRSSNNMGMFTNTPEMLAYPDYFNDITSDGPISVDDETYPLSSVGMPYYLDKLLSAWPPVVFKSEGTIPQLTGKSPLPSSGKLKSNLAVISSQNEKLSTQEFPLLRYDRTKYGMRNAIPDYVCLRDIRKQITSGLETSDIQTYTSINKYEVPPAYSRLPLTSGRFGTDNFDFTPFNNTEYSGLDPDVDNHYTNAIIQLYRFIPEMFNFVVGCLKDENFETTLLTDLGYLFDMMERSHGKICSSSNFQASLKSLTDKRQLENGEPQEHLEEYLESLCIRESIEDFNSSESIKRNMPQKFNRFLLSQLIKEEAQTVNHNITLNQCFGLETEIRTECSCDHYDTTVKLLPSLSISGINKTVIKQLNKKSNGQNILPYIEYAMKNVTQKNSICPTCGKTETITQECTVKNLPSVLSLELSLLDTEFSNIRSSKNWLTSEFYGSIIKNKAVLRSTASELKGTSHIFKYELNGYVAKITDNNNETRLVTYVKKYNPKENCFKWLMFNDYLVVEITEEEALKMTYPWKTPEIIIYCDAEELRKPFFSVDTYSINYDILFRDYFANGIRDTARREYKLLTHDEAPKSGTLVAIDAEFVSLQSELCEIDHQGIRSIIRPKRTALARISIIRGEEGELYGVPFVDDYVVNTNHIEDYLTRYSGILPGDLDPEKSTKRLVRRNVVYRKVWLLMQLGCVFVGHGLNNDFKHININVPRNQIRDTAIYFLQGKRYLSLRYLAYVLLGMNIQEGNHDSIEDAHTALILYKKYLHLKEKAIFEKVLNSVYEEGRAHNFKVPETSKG
Kind of assay: co-purification of a co-expressed complex (StrepTactin affinity chromatography); Pan2–Pan3 complexes expressed in S. cerevisiae with a Strep-II affinity tag and purified on StrepTactin.

The target of assay [2] is T2, scPan2 E912A (active site mutant) (Saccharomyces cerevisiae) (UniProt P53010).
T2 sequence: T1 sequence with E912A
The assay is described as above.

B1: Saccharomyces cerevisiae Pan3 (scPan3), full length, of the recombinant scPan2–Pan3 complex (natural protein, UniProt P36102 1-679, looked up)
chain: MDKINPDWAKDIPCRNITIYGYCKKEKEGCPFKHSDNTTATTINDVPPPIDVGEATTPTMTSVPKFNAKVSASFTPMTVGSDSLTTVTNTTSAATNATGNIAMAATSATASTVNPMINPIVNSSLVNNNNNNSNISISIPTTASSSNYDPFNAPIFTPSSTSSIHTNANAHSFPFPSIANSGGININATDDNSNNMSMANNVPPPMQPPPIESSNLKYPRIYPPPHSLLQYHLYAPEQPSSLKSLLKPNERSADQLFIPNNIREDLTKKNLSILQVFPSSGKVIPSIVQDYFNLVPLNFNNNDFLNKTTLFKVFSNYDGKAYVLKRLPNIDKSMNPNKISKIYQIWSKINCTNLIKFRDIFQTTKFGDLSICLVFDYYPNSLSLYDYHFVNFPKFPITNNYLWIYLVQLTNVINSIHSQNLSIGNTLNWRKVLITGDPGRIKLSHCNFMDLLFNDDTDTVVSSGGSTIEGQQQLDYKYLGELLFNLSINIENSNNNTAPKEYRLEEITPQSIDDMRQIDDKFKDVLKYLISDNGDSKKSIHDLTSHFYDKMFMVLESSQTYTEYMESVLSRELENGRLFRLVNKLNCIFGRIESRIDINWSESGTKFPIILFYDYVFHQVDSNGKPIMDLTHVLRCLNKLDAGIQEKLMLVTPDELNCIIISYKELKDLIESTFRSITQ
notes: Pan3, Saccharomyces cerevisiae; Two copies stand in the scPan2–Pan3 heterotrimer by nanoESI-MS
Take B1: the binding entry in assay [1] and in assay [2] was “binds” throughout.
